These results are taken from patent publication US20110293635A1.

These are yes or no findings as the source states them, for the method shown. Binding seen in cells or lysates may run through a third protein. Binding can be weak; no strength is given.

In assay [1] the target is CD14 (over-expressed in transfected HEK293 cells) (human). Nature of the assay: co-immunoprecipitation from CD14-transfected HEK293 cells, immunoblot. A general note: Immunoblotting shows a protein as a band on a membrane.
Assay [2] has the same target. The assay is described as follows: co-immunoprecipitation (antibody on protein A/G beads) from CD14-transfected HEK293 cells, LPS for 0, 2 or 24 hours, immunoblot for TLR14 and CD14.

B1: endogenous Toll-like Receptor 14 (TLR14) (receptor)
chain: VCPERCDCQHPQHLLCTNRGLRVVPKTSSLPSPHDVLTYSLGGNFITNITAFDFHRLGQLRRLDLQYNQIRSLHPKTFEKLSRLEELYLGNNLLQALAPGTLAPLRKLRILYANGNEISRLSRGSFEGLESLVKLRLDGNALGALPDAVFAPLGNLLYLHLESNRIRFLGKNAFAQLGKLRFLNLSANELQPSLRHAATFAPLRSLSSLILSANSLQHLGPRIFQHLPRLGLLSLRGNQLTHLAPEAFWGLEALRELRLEGNRLSQLPTALLEPLHSLEALDLSGNELSALHPATFGHLGRLRELSLRNNALSALSGDIFAASPALYRLDLDGNGWTCDCRLRGLKRWMGDWHSQGRLLTVFVQCRHPPALRGKYLDYLDDQQLQNGSCADPSPSASLTADRRRQPLPTAAGEEMTPPAGLAEELPPQPQLQQQGRFLAGVAWDGAARELVGNRSALRLSRRGPGLQQPSPSVAAAAGPAPQSLDLHKKPQRGRPTRADPALAEPTPTASPGSAPSPAGDPWQRATKHRLGTEHQERAAQSDGGAGLPPLVSDPCDFNKFILCNLTVEAVGADSASVRWAVREHRSPRPLGGARFRLLFDRFGQQPKFHRFVYLPESSDSATLRELRGDTPYLVCVEGVLGGRVCPVAPRDHCAGLVTLPEAGSRGGVDYQLLTLALLTVNALLVLLALAAWASRWLRRKLRARRKGGAPVHVRHMYSTRRPLRSMGTGVSADFSGFQSHRPRTTVCALSEADLIEFPCDRFMDSAGGGAGGSLRREDRLLQRFAD
On to B1, for which the binding entry in assay [1] and in assay [2] was “binds” in each case.
